Experimental data published in patent US20260209376A1.
Results are given in words; binding and its absence hold for the method and conditions named. Some entries that bind do so weakly or less than the wild type.

Key:
[1] = target: TfR1 (antigen; form in the assay not stated) (human) (UniProt P02786); experiment: ELISA and/or flow cytometry
[2] = target: cynomolgus monkey (Macaca fascicularis) soluble TfR1 (sCD71) (cynomolgus monkey (Macaca fascicularis)); experiment: ELISA, plate coated with soluble cynomolgus monkey TfR1 (sCD71)
[3] = target: cynomolgus monkey (Macaca fascicularis) soluble TfR1 (sCD71) (cynomolgus monkey (Macaca fascicularis)); experiment: ELISA, plate coated with soluble cynomolgus monkey TfR1 (Sino Biological), 2-fold antibody dilutions, AP anti-human kappa detection, A405
[4] = target: TfR1 (antigen; form in the assay not stated) (human) (UniProt P02786); experiment: assay not named in the sentence (ELISA and flow cytometry per paragraph 218)

binding [1] | binding [2] | binding [3] | binding [4] | Binder
binds | binds | binds |  | H6L9 (antibody, human IgG1, V domains shown) VH: EVQLVQSGAEVKKPGESLKISCKGSGYSFTGYTMNWVRQMPGKGLEWMGRINPHNGGTDYNQKFKDQVTISADKSISTAYLQWSSLKASDTAMYYCARGYYYYSLDYWGQGTLVTVSS VL: EIVLTQSPATLSLSPGERATLSCSASSSIRYIHWYQQKPGQAPRRWIYDTSNLASGTPARFSGSGSGTDFTLTISSLEPEDFAVYYCHQRNSYPWTFGQGTKVEIK
binds |  |  |  | H6L10 (antibody, human IgG1, V domains shown) VH: EVQLVQSGAEVKKPGESLKISCKGSGYSFTGYTMNWVRQMPGKGLEWMGRINPHNGGTDYNQKFKDQVTISADKSISTAYLQWSSLKASDTAMYYCARGYYYYSLDYWGQGTLVTVSS VL: EIVLTQSPDFQSVTPKEKVTITCSASSSIRYIHWYQQRPDQSPKRWIYDTSNLASGVPSRFSGSGSGTDFTLTINSLEAEDAATYYCHQRNSYPWTFGQGTKVEIK
binds |  |  |  | H8L7 (antibody, human IgG1, V domains shown) VH: QVQLVESGGGVVQPGRSLRLSCAASGYSFTGYTMNWVRQAPGNGLEWVARINPHNGGTDYNQKFKDRFTISRDNSKNTLYLQMNSLRAEDTAVYYCARGYYYYSLDYWGQGTTVTVSS VL: EIVLTQSPATLSLSPGERATLSCSASSSIRYIHWYQQKPGQAPRRWIYDTSNLASGTPARFSGSGSGTSYSLTISSLEPEDFAVYYCHQRNSYPWTFGQGTKVEIK
binds |  |  |  | H6L8 (antibody, human IgG1, V domains shown) VH: EVQLVQSGAEVKKPGESLKISCKGSGYSFTGYTMNWVRQMPGKGLEWMGRINPHNGGTDYNQKFKDQVTISADKSISTAYLQWSSLKASDTAMYYCARGYYYYSLDYWGQGTLVTVSS VL: EIVLTQSPDFQSVTPKEKVTITCSASSSIRYIHWYQQRPDQSPKRWIYDTSNLASGVPSRFSGSGSGTSYSLTINSLEAEDAATYYCHQRNSYPWTFGQGTKVEIK
binds | binds | binds |  | H8L9 (antibody, human IgG1, V domains shown) VH: QVQLVESGGGVVQPGRSLRLSCAASGYSFTGYTMNWVRQAPGNGLEWVARINPHNGGTDYNQKFKDRFTISRDNSKNTLYLQMNSLRAEDTAVYYCARGYYYYSLDYWGQGTTVTVSS VL: EIVLTQSPATLSLSPGERATLSCSASSSIRYIHWYQQKPGQAPRRWIYDTSNLASGTPARFSGSGSGTDFTLTISSLEPEDFAVYYCHQRNSYPWTFGQGTKVEIK
binds |  |  |  | H6L12 (antibody, human IgG1, V domains shown) VH: EVQLVQSGAEVKKPGESLKISCKGSGYSFTGYTMNWVRQMPGKGLEWMGRINPHNGGTDYNQKFKDQVTISADKSISTAYLQWSSLKASDTAMYYCARGYYYYSLDYWGQGTLVTVSS VL: EIVLTQSPDFQSVTPKEKVTITCSASSSIRYIHWYQQRPDQSPKLLIYDTSNLASGVPSRFSGSGSGTSYSLTINSLEAEDAATYYCHQRNSYPWTFGQGTKVEIK
binds |  |  |  | H6L5 (antibody, human IgG1, V domains shown) VH: EVQLVQSGAEVKKPGESLKISCKGSGYSFTGYTMNWVRQMPGKGLEWMGRINPHNGGTDYNQKFKDQVTISADKSISTAYLQWSSLKASDTAMYYCARGYYYYSLDYWGQGTLVTVSS VL: EIVLTQSPATLSLSPGERATLSCSASSSIRYIHWYQQKPGQAPRRWIYDTSNLASGTPARFSGSGSGTSYSLTISSLEPEDFAVYYCQQRNSYPWTFGQGTKVEIK
binds | binds | binds |  | H6L7 (antibody, human IgG1, V domains shown) VH: EVQLVQSGAEVKKPGESLKISCKGSGYSFTGYTMNWVRQMPGKGLEWMGRINPHNGGTDYNQKFKDQVTISADKSISTAYLQWSSLKASDTAMYYCARGYYYYSLDYWGQGTLVTVSS VL: EIVLTQSPATLSLSPGERATLSCSASSSIRYIHWYQQKPGQAPRRWIYDTSNLASGTPARFSGSGSGTSYSLTISSLEPEDFAVYYCHQRNSYPWTFGQGTKVEIK
binds |  |  |  | H6L11 (antibody, human IgG1, V domains shown) VH: EVQLVQSGAEVKKPGESLKISCKGSGYSFTGYTMNWVRQMPGKGLEWMGRINPHNGGTDYNQKFKDQVTISADKSISTAYLQWSSLKASDTAMYYCARGYYYYSLDYWGQGTLVTVSS VL: EIVLTQSPATLSLSPGERATLSCSASSSIRYIHWYQQKPGQAPRLLIYDTSNLASGTPARFSGSGSGTSYSLTISSLEPEDFAVYYCHQRNSYPWTFGQGTKVEIK
binds |  |  |  | H8L5 (antibody, human IgG1, V domains shown) VH: QVQLVESGGGVVQPGRSLRLSCAASGYSFTGYTMNWVRQAPGNGLEWVARINPHNGGTDYNQKFKDRFTISRDNSKNTLYLQMNSLRAEDTAVYYCARGYYYYSLDYWGQGTTVTVSS VL: EIVLTQSPATLSLSPGERATLSCSASSSIRYIHWYQQKPGQAPRRWIYDTSNLASGTPARFSGSGSGTSYSLTISSLEPEDFAVYYCQQRNSYPWTFGQGTKVEIK
binds |  |  |  | H6L6 (antibody, human IgG1, V domains shown) VH: EVQLVQSGAEVKKPGESLKISCKGSGYSFTGYTMNWVRQMPGKGLEWMGRINPHNGGTDYNQKFKDQVTISADKSISTAYLQWSSLKASDTAMYYCARGYYYYSLDYWGQGTLVTVSS VL: EIVLTQSPDFQSVTPKEKVTITCSASSSIRYIHWYQQRPDQSPKRWIYDTSNLASGVPSRFSGSGSGTSYSLTINSLEAEDAATYYCQQRNSYPWTFGQGTKVEIK
 |  |  | binds | H6 Chim (antibody, human IgG1, V domains shown) VH: EVQLVQSGAEVKKPGESLKISCKGSGYSFTGYTMNWVRQMPGKGLEWMGRINPHNGGTDYNQKFKDQVTISADKSISTAYLQWSSLKASDTAMYYCARGYYYYSLDYWGQGTLVTVSS VL: QIVLTQSPAIMSVSPGEKVTMTCSASSSIRYIHWYQQRPGTSPKRWIYDTSNLASGVPARFSGSGSGTSYSLTISSMEAEDAATYYCHQRNSYPWTFGGGTRLEIR
binds | binds | binds |  | H8L10 (antibody, human IgG1, V domains shown) VH: QVQLVESGGGVVQPGRSLRLSCAASGYSFTGYTMNWVRQAPGNGLEWVARINPHNGGTDYNQKFKDRFTISRDNSKNTLYLQMNSLRAEDTAVYYCARGYYYYSLDYWGQGTTVTVSS VL: EIVLTQSPDFQSVTPKEKVTITCSASSSIRYIHWYQQRPDQSPKRWIYDTSNLASGVPSRFSGSGSGTDFTLTINSLEAEDAATYYCHQRNSYPWTFGQGTKVEIK
binds |  |  |  | H8L6 (antibody, human IgG1, V domains shown) VH: QVQLVESGGGVVQPGRSLRLSCAASGYSFTGYTMNWVRQAPGNGLEWVARINPHNGGTDYNQKFKDRFTISRDNSKNTLYLQMNSLRAEDTAVYYCARGYYYYSLDYWGQGTTVTVSS VL: EIVLTQSPDFQSVTPKEKVTITCSASSSIRYIHWYQQRPDQSPKRWIYDTSNLASGVPSRFSGSGSGTSYSLTINSLEAEDAATYYCQQRNSYPWTFGQGTKVEIK
 |  |  | binds | H8 Chim (antibody, human IgG1, V domains shown) VH: QVQLVESGGGVVQPGRSLRLSCAASGYSFTGYTMNWVRQAPGNGLEWVARINPHNGGTDYNQKFKDRFTISRDNSKNTLYLQMNSLRAEDTAVYYCARGYYYYSLDYWGQGTTVTVSS VL: QIVLTQSPAIMSVSPGEKVTMTCSASSSIRYIHWYQQRPGTSPKRWIYDTSNLASGVPARFSGSGSGTSYSLTISSMEAEDAATYYCHQRNSYPWTFGGGTRLEIR
binds |  |  |  | H8L8 (antibody, human IgG1, V domains shown) VH: QVQLVESGGGVVQPGRSLRLSCAASGYSFTGYTMNWVRQAPGNGLEWVARINPHNGGTDYNQKFKDRFTISRDNSKNTLYLQMNSLRAEDTAVYYCARGYYYYSLDYWGQGTTVTVSS VL: EIVLTQSPDFQSVTPKEKVTITCSASSSIRYIHWYQQRPDQSPKRWIYDTSNLASGVPSRFSGSGSGTSYSLTINSLEAEDAATYYCHQRNSYPWTFGQGTKVEIK
 | binds | binds |  | ch128.1 (antibody, human IgG1, V domains shown) VH: EVQLQQSGPELVKPGASMKISCKASGYSFTGYTMNWVKQSHGENLEWIGRINPHNGGTDYNQKFKDKAPLTVDKSSNTAYMELLSLTSGDSAVYYCARGYYYYSLDYWGQGTSVTVSS VL: QIVLTQSPAIMSVSPGEKVTMTCSASSSIRYIHWYQQRPGTSPKRWIYDTSNLASGVPARFSGSGSGTSYSLTISSMEAEDAATYYCHQRNSYPWTFGGGTRLEIR
 |  |  | binds | H7 Chim (antibody, human IgG1, V domains shown) VH: QVQLVQSGAEVKKPGSSVKVSCKASGYSFTGYTMNWVRQAPGQGLEWMGRINPHNGGTDYNQKFKDRVTITADKSTSTAYMELSSLRSEDTAVYYCARGYYYYSLDYWGQGTLVTVSS VL: QIVLTQSPAIMSVSPGEKVTMTCSASSSIRYIHWYQQRPGTSPKRWIYDTSNLASGVPARFSGSGSGTSYSLTISSMEAEDAATYYCHQRNSYPWTFGGGTRLEIR
